From article PMC2822766
These are yes or no findings as the source states them, for the method shown. Binding seen in cells or lysates may run through a third protein. Binding can be weak; no strength is given. Sequences can lack the tags named with a protein.

Protein sequences, listed by entry. Tags and fused reporters are not part of them. Lines headed by an entry give the natural chain unless they say otherwise; changes in a name come on top.
UniProt Q9Y2W7: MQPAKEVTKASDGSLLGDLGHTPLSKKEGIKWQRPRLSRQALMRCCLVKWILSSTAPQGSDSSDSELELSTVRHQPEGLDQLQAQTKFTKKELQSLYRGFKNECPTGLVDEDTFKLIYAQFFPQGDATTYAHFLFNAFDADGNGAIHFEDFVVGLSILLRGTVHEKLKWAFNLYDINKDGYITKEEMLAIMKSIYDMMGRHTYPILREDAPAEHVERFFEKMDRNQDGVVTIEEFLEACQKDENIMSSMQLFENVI

Target: Ca2+ insensitive mutant DREAM, Flag-tagged (TgDREAM-Flag) (UniProt Q9Y2W7)
Assay: co-IP; differentially tagged proteins (TgDREAM-Flag and Myc-tagged DREAM/KChIP 1 to 4) after overexpression in HEK293 cells; which tag was precipitated is not told

| binding | Binder |
| --- | --- |
| binds | KChIP-4, Myc-tagged (protein, UniProt Q6PIL6 1-250) MNVRRVESISAQLEEASSTGGFLYAQNSTKRSIKERLMKLLPCSAAKTSSPAIQNSVEDELEMATVRHRPEALELLEAQSKFTKKELQILYRGFKNECPSGVVNEETFKEIYSQFFPQGDSTTYAHFLFNAFDTDHNGAVSFEDFIKGLSILLRGTVQEKLNWAFNLYDINKDGYITKEEMLDIMKAIYDMMGKCTYPVLKEDAPRQHVETFFQKMDKNKDGVVTIDEFIESCQKDENIMRSMQLFENVI |
| binds | KChIP-2, Myc-tagged (protein, UniProt Q9NS61 1-270) MRGQGRKESLSDSRDLDGSYDQLTGHPPGPTKKALKQRFLKLLPCCGPQALPSVSETLAAPASLRPHRPRLLDPDSVDDEFELSTVCHRPEGLEQLQEQTKFTRKELQVLYRGFKNECPSGIVNEENFKQIYSQFFPQGDSSTYATFLFNAFDTNHDGSVSFEDFVAGLSVILRGTVDDRLNWAFNLYDLNKDGCITKEEMLDIMKSIYDMMGKYTYPALREEAPREHVESFFQKMDRNKDGVVTIEEFIESCQKDENIMRSMQLFDNVI |
| binds | KChIP-1, Myc-tagged (protein, UniProt Q9NZI2 1-227) MGAVMGTFSSLQTKQRRPSKDIAWWYYQYQRDKIEDELEMTMVCHRPEGLEQLEAQTNFTKRELQVLYRGFKNECPSGVVNEDTFKQIYAQFFPHGDASTYAHYLFNAFDTTQTGSVKFEDFVTALSILLRGTVHEKLRWTFNLYDINKDGYINKEEMMDIVKAIYDMMGKYTYPVLKEDTPRQHVDVFFQKMDKNKDGIVTLDEFLESCQEDDNIMRSLQLFQNVM |
